According to US8637684B2, “Tautomycetin and tautomycetin analog biosynthesis” (Wisconsin Alumni Research Foundation, priority 2010, dated 2014):
Some results were stated once for a whole list of compounds, not compound by compound.

How the values were obtained:
SHP2 = biological target: T1, SHP2 (Homo sapiens, UniProt Q06124); assay: PTP activity assay with pNPP as substrate: SHP2; format: biochemical; settings: 10 μM compound, pH 7, 25° C.
T1 construct: The expression and purification of the SHP2 catalytic domain (residues 262-528) were described previously; made in house
T1 sequence (Q06124 262-528): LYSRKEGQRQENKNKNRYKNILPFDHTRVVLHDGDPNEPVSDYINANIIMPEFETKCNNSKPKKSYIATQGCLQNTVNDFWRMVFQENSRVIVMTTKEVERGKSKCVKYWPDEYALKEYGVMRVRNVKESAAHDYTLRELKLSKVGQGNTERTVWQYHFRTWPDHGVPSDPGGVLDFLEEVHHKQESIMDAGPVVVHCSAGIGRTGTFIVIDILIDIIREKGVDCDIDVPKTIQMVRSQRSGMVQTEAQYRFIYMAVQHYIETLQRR

[1] = system: panel of PTPs (PTP1B, SHP1, SHP2, Lyp, HePTP, Meg2, FAP1, CD45, LAR, PTPα, VHR, VHX, Cdc14, low molecular weight PTP); assay: Screen against a panel of PTPs at 10 μM compound (pNPP hydrolysis); format: biochemical; settings: all PTPs of the panel other than SHP2
Description: The PTP activity was assayed using pNPP as a substrate at 25° C. in 50 mM 3,3-dimethylglutarate buffer, pH 7.0, containing 1 mM EDTA with an ionic strength of 0.15 M adjusted by NaCl. TTM, TTN and the engineered analogs were analyzed for inhibition of a panel of PTPs at 10 μM compound concentration. For each enzyme screened, test compounds were diluted to 20 μM in 100 μL and combined with 50 μL pNPP at a concentration of 4×Km. The reaction was initiated by the addition of 50 μL of 4× concentrated enzyme and pNPP was allowed to convert to the product p-nitrophenol. The reaction was quenched by the addition of 50 μL of 5N NaOH. Nonenzymatic hydrolysis of pNPP was corrected by measuring the control without the addition of enzyme. Production of p-nitrophenol was monitored by a Spectra MAX385 microplate spectrophotometer (Molecular Devices) at 405 nm using a molar extinction coefficient of 18,000 M^−1 cm^−1. IC50 values were calculated by fitting the absorbance at 405 nm versus inhibitor concentration to the following equation: AI/A0=IC50/(IC50+[I]) where AI is the absorbance at 405 nm of the sample in the presence of inhibitor; Ao is the absorbance at 405 nm in the absence of inhibitor; and [I] is the concentration of the inhibitor. […]

tautomycetin [TTN]
reduction of SHP2 activity (SHP2): 80-90% | inhibition of the rest of the PTP panel [1]: < 30%
